Some results were stated once for a whole list of compounds, not compound by compound.
What follows are molecules tested against T1, EGFR V3 (Homo sapiens, UniProt P00533, DELINS30-297G) (assay: Activity for inhibiting EGFR (Table A), EGFR V3 (EGFR-Viii)). Conditions: text lists of compounds.
T1 construct: expressed in transfected cells; host or cells: BaF3 (murine pro-B), retroviral pMXs-IRES-Blasticidin
Assay type: cell-based

The chains behind the UniProt entries cited, without tags or fusion partners. A line that says so, or that is headed by a name, gives the form on record, which may keep a tag or linker. Residues count along the entry.
UniProt P00533, with tags, fused parts or gaps DELINS30-297G: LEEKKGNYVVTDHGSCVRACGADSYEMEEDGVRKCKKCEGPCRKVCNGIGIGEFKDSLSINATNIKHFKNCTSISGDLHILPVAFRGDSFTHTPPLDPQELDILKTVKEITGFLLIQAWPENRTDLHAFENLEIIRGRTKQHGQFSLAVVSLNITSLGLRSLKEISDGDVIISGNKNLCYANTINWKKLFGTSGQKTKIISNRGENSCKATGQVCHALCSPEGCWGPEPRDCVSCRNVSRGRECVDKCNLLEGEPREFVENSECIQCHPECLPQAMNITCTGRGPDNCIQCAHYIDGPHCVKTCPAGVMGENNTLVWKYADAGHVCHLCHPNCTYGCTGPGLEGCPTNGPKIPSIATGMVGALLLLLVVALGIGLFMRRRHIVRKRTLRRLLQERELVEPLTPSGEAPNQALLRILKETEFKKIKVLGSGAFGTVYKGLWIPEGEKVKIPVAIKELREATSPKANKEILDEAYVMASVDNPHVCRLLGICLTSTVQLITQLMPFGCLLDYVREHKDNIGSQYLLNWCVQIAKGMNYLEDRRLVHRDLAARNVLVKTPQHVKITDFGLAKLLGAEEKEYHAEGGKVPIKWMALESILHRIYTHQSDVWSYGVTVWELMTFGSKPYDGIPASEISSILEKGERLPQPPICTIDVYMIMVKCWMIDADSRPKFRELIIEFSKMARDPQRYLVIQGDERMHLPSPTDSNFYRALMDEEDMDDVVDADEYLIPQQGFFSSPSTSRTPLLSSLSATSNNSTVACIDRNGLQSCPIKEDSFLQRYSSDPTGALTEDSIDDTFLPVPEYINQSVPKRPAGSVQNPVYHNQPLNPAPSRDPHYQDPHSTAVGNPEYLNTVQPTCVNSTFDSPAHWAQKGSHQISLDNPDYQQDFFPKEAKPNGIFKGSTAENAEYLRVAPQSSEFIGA
UniProt P04626, 23-1255 S310F: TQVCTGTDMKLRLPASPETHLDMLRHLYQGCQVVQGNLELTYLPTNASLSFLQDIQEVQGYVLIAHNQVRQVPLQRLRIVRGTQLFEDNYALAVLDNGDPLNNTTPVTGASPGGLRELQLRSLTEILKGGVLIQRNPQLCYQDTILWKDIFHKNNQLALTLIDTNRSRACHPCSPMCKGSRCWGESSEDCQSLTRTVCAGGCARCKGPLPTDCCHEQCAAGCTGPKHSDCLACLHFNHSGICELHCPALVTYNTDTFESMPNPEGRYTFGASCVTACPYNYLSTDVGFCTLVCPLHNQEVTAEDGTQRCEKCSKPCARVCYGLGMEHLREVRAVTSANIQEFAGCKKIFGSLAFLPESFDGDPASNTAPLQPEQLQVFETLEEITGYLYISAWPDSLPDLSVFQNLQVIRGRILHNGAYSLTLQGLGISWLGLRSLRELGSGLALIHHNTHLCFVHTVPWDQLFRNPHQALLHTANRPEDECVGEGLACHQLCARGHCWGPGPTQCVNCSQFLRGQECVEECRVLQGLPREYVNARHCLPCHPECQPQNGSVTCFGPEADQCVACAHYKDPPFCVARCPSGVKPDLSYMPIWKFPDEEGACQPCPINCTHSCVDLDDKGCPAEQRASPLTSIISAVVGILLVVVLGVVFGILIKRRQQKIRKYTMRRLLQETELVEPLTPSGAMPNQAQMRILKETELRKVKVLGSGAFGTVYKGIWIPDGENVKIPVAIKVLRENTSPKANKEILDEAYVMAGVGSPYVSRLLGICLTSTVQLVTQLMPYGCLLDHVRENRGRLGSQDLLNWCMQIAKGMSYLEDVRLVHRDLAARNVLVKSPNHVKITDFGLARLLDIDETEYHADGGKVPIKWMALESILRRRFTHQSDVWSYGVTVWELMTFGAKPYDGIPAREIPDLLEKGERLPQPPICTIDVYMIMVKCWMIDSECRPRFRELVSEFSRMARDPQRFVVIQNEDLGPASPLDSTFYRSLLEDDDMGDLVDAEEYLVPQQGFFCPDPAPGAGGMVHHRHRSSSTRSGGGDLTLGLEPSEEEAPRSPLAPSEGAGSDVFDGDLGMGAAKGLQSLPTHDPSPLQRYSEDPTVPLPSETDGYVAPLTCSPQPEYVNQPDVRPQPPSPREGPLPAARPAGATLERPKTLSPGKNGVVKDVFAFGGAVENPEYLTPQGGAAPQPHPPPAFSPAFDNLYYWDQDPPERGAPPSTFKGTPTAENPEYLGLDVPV

Compound	IC50 [µM]
C=CC(=O)Nc1cc2c(Nc3ccc(OCc4cccc(F)c4)c(Cl)c3)ncnc2cc1N(C)CCN1CCOCC1 [compound 2]	≤ 0.1
CC#CC(=O)Nc1cc2c(Nc3ccc(OCc4ccccn4)c(Cl)c3)ncnc2cc1N(C)CCN1CCOCC1 [compound 4]	≤ 0.1
C=CC(=O)Nc1cc2c(Nc3ccc(OCc4ccccn4)c(Cl)c3)ncnc2cc1OCCn1ccnc1 [compound 10]	≤ 0.1
C=CC(=O)Nc1cc2c(Nc3ccc(OCc4ccccn4)c(Cl)c3)c(C#N)cnc2cc1OCCN1CCOCC1 [compound 11]	≤ 0.1
C=CC(=O)Nc1cc2c(Nc3ccc(OCc4ccccn4)c(Cl)c3)ncnc2cc1OCC1CCCN1 (stereo not shown) [compound 13]	≤ 0.1
C=CC(=O)Nc1cc2c(Nc3ccc(OCc4ccccn4)c(Cl)c3)ncnc2cc1N1CCN(C)CC1 [compound 42]	≤ 0.1
C=CC(=O)Nc1cc2c(Nc3ccc(OCc4ccccn4)c(Cl)c3)ncnc2cc1N1CCC2(CCN(C)C2)C1 (stereo not shown) [compound 46]	≤ 0.1
C=CC(=O)Nc1cc2c(Nc3ccc(OCc4ccccn4)c(Cl)c3)ncnc2cc1OCC1(N)CC1 [compound 55]	≤ 0.1
C=CC(=O)Nc1cc2c(Nc3ccc(Oc4ccccc4)cc3)ncnc2cc1OCCN1CCOCC1 [compound 63]	≤ 0.1
C=CC(=O)Nc1cc2c(Nc3ccc(Oc4ccc(C)nc4)c(C)c3)ncnc2cc1OCCN1CCOCC1 [compound 73]	≤ 0.1
C=CC(=O)Nc1cc2c(Nc3ccc(OCc4ccccn4)c(Cl)c3)ncnc2cc1OCCN1CCC(N(C)C)CC1 [compound 76]	≤ 0.1
C=CC(=O)Nc1cc2c(Nc3ccc(OCc4ccccn4)c(Cl)c3)ncnc2cc1OCCN1CC2CN(C)CC2C1 (stereo not shown) [compound 77]	≤ 0.1
C=CC(=O)Nc1cc2c(Nc3ccc(OCc4ccccn4)c(Cl)c3)ncnc2cc1C#CC1CCCN1 (stereo not shown) [compound 83, N-(4-((3-chloro-4-(pyridin-2-ylmethoxy)phenyl)amino)-7-(pyrrolidin-2-ylethynyl)quinazolin-6-yl)acrylamide]	≤ 0.1
C=CC(=O)Nc1cc2c(Nc3ccc(OCc4ccccn4)c(Cl)c3)ncnc2cc1OCCN1CC2(CN(C)C2)C1 [compound 119, N-(4-((3-chloro-4-(pyridin-2-ylmethoxy)phenyl)amino)-7-(2-(6-methyl-2,6-diazaspiro[3.3]heptan-2-yl)ethoxy)quinazolin-6-yl)acrylamide]	≤ 0.1
C=CC(=O)Nc1cc2c(Nc3ccc(OCc4ccccn4)c(Cl)c3)ncnc2cc1OCC12CCC(CC1)N2C [compound 122, N-(4-((3-chloro-4-(pyridin-2-ylmethoxy)phenyl)amino)-7-((7-methyl-7-azabicyclo[2.2.1]heptan-1-yl)methoxy)quinazolin-6-yl)acrylamide]	≤ 0.1
C=CC(=O)Nc1cc2c(Nc3cc(Cl)c(OCc4cccc(F)c4)cc3F)ncnc2cc1OCCN1CC(OC)C1 [compound 134]	≤ 0.1
CC#CC(=O)Nc1cc2c(Nc3cc(Cl)c(OCc4cccc(F)c4)cc3F)ncnc2cc1OCCN1CCOCC1 [compound 149, N-(4-((5-chloro-2-fluoro-4-((3-fluorobenzyl)oxy)phenyl)amino)-7-(2-morpholinoethoxy)quinazolin-6-yl)but-2-ynamide]	≤ 0.1
CC#CC(=O)Nc1cc2c(Nc3cc(Cl)c(OCc4cccc(F)c4)cc3F)ncnc2cc1O[C@@H]1CCN(C)C1 [compound 151, (R)-N-(4-((5-chloro-2-fluoro-4-((3-fluorobenzyl)oxy)phenyl)amino)-7-((1-methylpyrrolidin-3-yl)oxy)quinazolin-6-yl)but-2-ynamide]	≤ 0.1

These molecules were tested against T2, HER2 S310F (Homo sapiens, UniProt P04626, S310F) (assay: Activity for inhibiting HER2 (Table B), HER2 S310F). Conditions: text lists of compounds.
T2 construct: expressed in transfected cells; host or cells: BaF3 (murine pro-B)
Assay type: cell-based
Protocol: EC50 values were determined with the same application.

Compound	IC50 [µM]
C=CC(=O)Nc1cc2c(Nc3ccc(OCc4cccc(F)c4)c(Cl)c3)ncnc2cc1OCCCN1CCOCC1 [compound 3]	≤ 0.1
CC#CC(=O)Nc1cc2c(Nc3ccc(OCc4ccccn4)c(Cl)c3)ncnc2cc1N(C)CCN1CCOCC1 [compound 4]	≤ 0.1
C=CC(=O)Nc1cc2c(Nc3ccc(OCc4ccccn4)c(Cl)c3)ncnc2cc1OCCn1ccnc1 [compound 10]	≤ 0.1
C=CC(=O)Nc1cc2c(Nc3ccc(OCc4ccccn4)c(Cl)c3)c(C#N)cnc2cc1OCCN1CCOCC1 [compound 11]	≤ 0.1
C=CC(=O)Nc1cc2c(Nc3ccc(OCc4ccccn4)c(Cl)c3)ncnc2cc1OCC1CCCN1 (stereo not shown) [compound 13]	≤ 0.1
C=CC(=O)Nc1cc2c(Nc3ccc(OCc4ccccn4)c(Cl)c3)ncnc2cc1OC1CCN(C)C1 (stereo not shown) [compound 16]	≤ 0.1
C=CC(=O)Nc1cc2c(Nc3ccc(OCc4ccccn4)c(Cl)c3)ncnc2cc1OCCN(C)C [compound 19]	≤ 0.1
C=CC(=O)Nc1cc2c(Nc3ccc(OCc4cccc(F)c4)c(Cl)c3)ncnc2cc1OCCN1CCOCC1 [compound 27]	≤ 0.1
C=CC(=O)Nc1cc2c(Nc3ccc(OCc4ccccn4)c(Cl)c3)ncnc2cc1OCCN1C2CCC1COC2 [compound 31]	≤ 0.1
C=CC(=O)Nc1cc2c(Nc3ccc(OCc4ccccn4)c(Cl)c3)ncnc2cc1OCCN1CC2CCC(C1)O2 [compound 36]	≤ 0.1
C=CC(=O)Nc1cc2c(Nc3ccc(OCc4ccccn4)c(Cl)c3)ncnc2cc1OCCN(C)C1CCOC1 (stereo not shown) [compound 41]	≤ 0.1
C=CC(=O)Nc1cc2c(Nc3ccc(OCc4ccccn4)c(Cl)c3)ncnc2cc1N1CCN(C)CC1 [compound 42]	≤ 0.1
C=CC(=O)Nc1cc2c(Nc3ccc(OCc4ccccn4)c(Cl)c3)ncnc2cc1N1CC2CN(C)CC2C1 (stereo not shown) [compound 47]	≤ 0.1
C=CC(=O)Nc1cc2c(Nc3ccc(OCc4ccccn4)c(Cl)c3)ncnc2cc1OCCN1CC2(CCO2)C1 [compound 52]	≤ 0.1
C=CC(=O)Nc1cc2c(Nc3ccc(OCc4ccccn4)c(Cl)c3)ncnc2cc1OCCN(C)C1CC1 [compound 53]	≤ 0.1
C=CC(=O)Nc1cc2c(Nc3ccc(OCc4ccccn4)c(Cl)c3)ncnc2cc1OCC1(N(C)C)CC1 [compound 54]	≤ 0.1
C=CC(=O)Nc1cc2c(Nc3ccc(OCc4ccccn4)cc3F)ncnc2cc1OCCN1CCOCC1 [compound 56]	≤ 0.1
C=CC(=O)Nc1cc2c(Nc3cc(Cl)c(OCc4ccccn4)cc3F)ncnc2cc1OC1CCN(C)C1 (stereo not shown) [compound 60]	≤ 0.1
C=CC(=O)Nc1cc2c(Nc3ccc(Oc4ccccc4)cc3)ncnc2cc1OCCN1CCOCC1 [compound 63]	≤ 0.1
C=CC(=O)Nc1cc2c(Nc3ccc(Oc4ccc(C)nc4)c(C)c3)ncnc2cc1OCCN1CCOCC1 [compound 73]	≤ 0.1
C=CC(=O)Nc1cc2c(Nc3ccc(OCc4ccccn4)c(Cl)c3)ncnc2cc1OCCN1CCC(N(C)C)CC1 [compound 76]	≤ 0.1
C=CC(=O)Nc1cc2c(Nc3ccc(OCc4ccccn4)c(Cl)c3)ncnc2cc1OCCN1CC2CN(C)CC2C1 (stereo not shown) [compound 77]	≤ 0.1
C=CC(=O)Nc1cc2c(Nc3ccc(OCc4ccccn4)c(Cl)c3)ncnc2cc1N1CCC(N(C)C)CC1 [compound 78]	≤ 0.1
C=CC(=O)Nc1cc2c(Nc3ccc(Oc4ccc(C)nc4)c(C)c3)ncnc2cc1C#CC(C)(C)N(C)C [compound 82]	≤ 0.1
C=CC(=O)Nc1cc2c(Nc3ccc(OCc4ccccn4)c(Cl)c3)ncnc2cc1OCC1CCN1C (stereo not shown) [compound 116, N-(4-((3-chloro-4-(pyridin-2-ylmethoxy)phenyl)amino)-7-((1-methylazetidin-2-yl)methoxy)quinazolin-6-yl)acrylamide]	≤ 0.1

Compound	IC50 [µM]
C=CC(=O)Nc1cc2c(Nc3ccc(OCc4ccccn4)c(Cl)c3)ncnc2cc1OCCN1CC2(CN(C)C2)C1 [compound 119, N-(4-((3-chloro-4-(pyridin-2-ylmethoxy)phenyl)amino)-7-(2-(6-methyl-2,6-diazaspiro[3.3]heptan-2-yl)ethoxy)quinazolin-6-yl)acrylamide]	≤ 0.1
C=CC(=O)Nc1cc2c(Nc3ccc(OCc4ccccn4)c(Cl)c3)ncnc2cc1C#CC1CC2(C1)CN(C)C2 [compound 124, N-(4-((3-chloro-4-(pyridin-2-ylmethoxy)phenyl)amino)-7-((2-methyl-2-azaspiro[3.3]heptan-6-yl)ethynyl)quinazolin-6-yl)acrylamide]	≤ 0.1
C=CC(=O)Nc1cc2c(Nc3ccc(OCc4cccc(C)n4)c(Cl)c3)ncnc2cc1OCCCN1CCOCC1 [compound 129]	≤ 0.1
C=CC(=O)Nc1cc2c(Nc3ccc(OCc4cccc(F)c4)c(Cl)c3)ncnc2cc1OCCN1CCN(C)CC1 [compound 130]	≤ 0.1
C=CC(=O)Nc1cc2c(Nc3cc(Cl)c(OCc4cccc(F)c4)cc3F)ncnc2cc1OCCCN1CC(OC)C1 [compound 131]	≤ 0.1
C=CC(=O)Nc1cc2c(Nc3cc(Cl)c(OCc4cccc(F)c4)cc3F)ncnc2cc1O[C@@H]1CCN(C)C1 [compound 133]	≤ 0.1
C=CC(=O)Nc1cc2c(Nc3cc(Cl)c(OCc4cccc(F)c4)cc3F)ncnc2cc1OCCN1CC(OC)C1 [compound 134]	≤ 0.1
CC#CC(=O)Nc1cc2c(Nc3cc(Cl)c(OCc4cccc(F)c4)cc3F)ncnc2cc1OCCCN1CC(OC)C1 [compound 136, N-(4-((5-chloro-2-fluoro-4-((3-fluorobenzyl)oxy)phenyl)amino)-7-(3-(3-methoxyazetidin-1-yl)propoxy)quinazolin-6-yl)but-2-ynamide]	≤ 0.1
C=CC(=O)Nc1cc2c(Nc3ccc(OCc4cccc(F)c4)c(Cl)c3)ncnc2cc1OCCN1CC2CCC(C1)O2 [compound 139]	≤ 0.1
C=CC(=O)Nc1cc2c(Nc3ccc(OCc4cccc(F)c4)c(Cl)c3)ncnc2cc1O[C@@H]1CCN(C)C1 [compound 141]	≤ 0.1
C=CC(=O)Nc1cc2c(Nc3ccc(OCc4cccc(F)c4)c(Cl)c3)ncnc2cc1OCCN1CC(OC)C1 [compound 143]	≤ 0.1
C=CC(=O)Nc1cc2c(Nc3ccc(OCc4cccc(F)c4)c(Cl)c3)ncnc2cc1OCCCN1CC(OC)C1 [compound 144]	≤ 0.1
C=CC(=O)Nc1cc2c(Nc3cc(Cl)c(OCc4cccc(F)c4)cc3F)ncnc2cc1OCCN1CCN(C)CC1 [compound 145]	≤ 0.1
C=CC(=O)Nc1cc2c(Nc3ccc(OCc4cccc(F)n4)c(Cl)c3)ncnc2cc1OCCN1CCOCC1 [compound 154]	≤ 0.1
C=CC(=O)Nc1cc2c(Nc3ccc(OCc4cccc(F)n4)c(Cl)c3)ncnc2cc1OCCN1CC(OC)C1 [compound 157]	≤ 0.1
C=CC(=O)Nc1cc2c(Nc3ccc(OCc4cccc(F)n4)c(Cl)c3)ncnc2cc1OCCN1CCN(C)CC1 [compound 158]	≤ 0.1
C=CC(=O)Nc1cc2c(Nc3ccc(OCc4cccc(F)c4)c(Cl)c3)ncnc2cc1OCCCN1C[C@@H]2C[C@H]1CO2 [compound 159]	≤ 0.1
C=CC(=O)Nc1cc2c(Nc3ccc(OCc4ccncn4)c(Cl)c3)ncnc2cc1OCCCN1CCOCC1 [compound 163]	≤ 0.1
CC#CC(=O)Nc1cc2c(Nc3ccc(OCc4ccncn4)c(Cl)c3)ncnc2cc1OCCCN1CCOCC1 [compound 164, N-(4-((3-chloro-4-(pyrimidin-4-ylmethoxy)phenyl)amino)-7-(3-morpholinopropoxy)quinazolin-6-yl)but-2-ynamide]	≤ 0.1
C=CC(=O)Nc1cc2c(Nc3ccc(OCc4ncccn4)c(Cl)c3)ncnc2cc1OCCCN1CCOCC1 [compound 166]	≤ 0.1
C=CC(=O)Nc1cc2c(Nc3ccc(OCc4cnccn4)c(Cl)c3)ncnc2cc1OCCN1CC2CCC(C1)O2 [compound 175]	≤ 0.1
C=CC(=O)Nc1cc2c(Nc3ccc(OCc4cnccn4)c(Cl)c3)ncnc2cc1OCCN1CCOCC1 [compound 176]	≤ 0.1
C=CC(=O)Nc1cc2c(Nc3ccc(OCc4cnccn4)c(Cl)c3)ncnc2cc1OCCN1CC(OC)C1 [compound 178]	≤ 0.1
C=CC(=O)Nc1cc2c(Nc3ccc(OCc4cnccn4)c(Cl)c3)ncnc2cc1OCCN1CCN(C)CC1 [compound 180]	≤ 0.1

— US11034672B1, “Tyrosine kinase inhibitor compositions, methods of making and methods of use” (Black Diamond Therapeutics, Inc., priority 2018, dated 2021)
